Laboratory results published in publication PMC13431160.
Results are given in words; binding and its absence hold for the method and conditions named. Binding seen in cells or lysates may run through a third protein. Some entries that bind do so weakly or less than the wild type. For part of these data: Where a sequence is shown, tags or fusion partners need not be part of it. One block for each molecule: values may come before it.

By UniProt entry, the sequences of proteins in these tests, tags left out.
UniProt O00425: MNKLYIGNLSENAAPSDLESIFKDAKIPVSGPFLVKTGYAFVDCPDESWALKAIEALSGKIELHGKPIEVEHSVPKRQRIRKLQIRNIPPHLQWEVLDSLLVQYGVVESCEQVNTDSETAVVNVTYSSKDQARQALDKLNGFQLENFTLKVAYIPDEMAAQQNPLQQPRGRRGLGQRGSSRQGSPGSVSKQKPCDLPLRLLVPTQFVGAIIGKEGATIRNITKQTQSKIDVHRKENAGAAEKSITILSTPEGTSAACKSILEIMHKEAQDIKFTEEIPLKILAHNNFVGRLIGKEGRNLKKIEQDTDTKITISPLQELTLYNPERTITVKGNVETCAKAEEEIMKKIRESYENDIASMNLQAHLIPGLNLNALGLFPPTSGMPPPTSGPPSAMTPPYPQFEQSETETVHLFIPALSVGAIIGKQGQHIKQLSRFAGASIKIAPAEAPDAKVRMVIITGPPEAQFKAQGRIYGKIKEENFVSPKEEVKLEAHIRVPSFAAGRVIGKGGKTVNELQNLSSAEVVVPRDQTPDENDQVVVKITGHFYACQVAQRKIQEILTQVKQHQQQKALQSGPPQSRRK

How the values were obtained:
[1] = target: T1, eGFP-EDC3 (pT7-EGFP-C1-HsEDC3) (human) (UniProt Q96F86); experiment: co-IP; HCT116 IGF2BP3 KO cells (clone A3) co-transfected with eGFP-EDC3 and 3xFLAG-IGF2BP3 WT or 4A; GFP-trap beads, 1 h at 4°C with 2 U/µL RNase I; 25 mM Tris-HCl pH 7.4, 100 mM KCl, 0.5% NP-40; Western blot with anti-GFP and anti-FLAG
T1 sequence: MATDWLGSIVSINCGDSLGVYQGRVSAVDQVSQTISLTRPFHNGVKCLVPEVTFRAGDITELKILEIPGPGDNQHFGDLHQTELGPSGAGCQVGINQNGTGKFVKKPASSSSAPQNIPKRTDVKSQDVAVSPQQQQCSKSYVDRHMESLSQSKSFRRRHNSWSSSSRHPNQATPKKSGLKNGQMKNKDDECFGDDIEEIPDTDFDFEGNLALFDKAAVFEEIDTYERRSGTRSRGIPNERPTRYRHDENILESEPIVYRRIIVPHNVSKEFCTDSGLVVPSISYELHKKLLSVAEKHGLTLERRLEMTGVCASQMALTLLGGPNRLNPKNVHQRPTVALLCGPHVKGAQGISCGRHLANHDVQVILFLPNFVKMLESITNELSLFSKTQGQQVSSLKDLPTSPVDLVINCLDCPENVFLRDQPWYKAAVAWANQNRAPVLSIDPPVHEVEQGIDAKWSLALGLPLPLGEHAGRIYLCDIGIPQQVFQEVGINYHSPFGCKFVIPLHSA

[2] = target: T2, EDC3 tagged with split-mNeonGreen in HEK293T cells (human (endogenous in HEK293T)) (UniProt Q96F86); experiment: co-IP; HEK293T split GFP-IGF2BP3 or split mNeonGreen-EDC3 cells, DMSO or TM 5 µg/mL 4 h; GFP-trap or mNeonGreen-trap magnetic beads, 1 h at 4°C with 2 U/µL RNase I; 25 mM Tris-HCl pH 7.4, 100 mM KCl, 0.5% NP-40; Western blot
T2 sequence: T1 sequence

[3] = target: split-GFP-tagged IGF2BP3 in HEK293T cells (human (endogenous in HEK293T)) (UniProt O00425); experiment: as above

binding [1]: binds
Molecule: 3xFLAG-hsIGF2BP3 WT (from UniProt O00425 1-579)

binding [2]: binds
Molecule: IGF2BP3, endogenous in HEK293T split mNeonGreen-EDC3 cells (from UniProt O00425 1-579)

binding [3]: binds
B1: EDC4, endogenous in HEK293T cells (protein, UniProt Q6P2E9 1-1401)
chain: MASCASIDIEDATQHLRDILKLDRPAGGPSAESPRPSSAYNGDLNGLLVPDPLCSGDSTSANKTGLRTMPPINLQEKQVICLSGDDSSTCIGILAKEVEIVASSDSSISSKARGSNKVKIQPVAKYDWEQKYYYGNLIAVSNSFLAYAIRAANNGSAMVRVISVSTSERTLLKGFTGSVADLAFAHLNSPQLACLDEAGNLFVWRLALVNGKIQEEILVHIRQPEGTPLNHFRRIIWCPFIPEESEDCCEESSPTVALLHEDRAEVWDLDMLRSSHSTWPVDVSQIKQGFIVVKGHSTCLSEGALSPDGTVLATASHDGYVKFWQIYIEGQDEPRCLHEWKPHDGRPLSCLLFCDNHKKQDPDVPFWRFLITGADQNRELKMWCTVSWTCLQTIRFSPDIFSSVSVPPSLKVCLDLSAEYLILSDVQRKVLYVMELLQNQEEGHACFSSISEFLLTHPVLSFGIQVVSRCRLRHTEVLPAEEENDSLGADGTHGAGAMESAAGVLIKLFCVHTKALQDVQIRFQPQLNPDVVAPLPTHTAHEDFTFGESRPELGSEGLGSAAHGSQPDLRRIVELPAPADFLSLSSETKPKLMTPDAFMTPSASLQQITASPSSSSSGSSSSSSSSSSSLTAVSAMSSTSAVDPSLTRPPEELTLSPKLQLDGSLTMSSSGSLQASPRGLLPGLLPAPADKLTPKGPGQVPTATSALSLELQEVEPLGLPQASPSRTRSPDVISSASTALSQDIPEIASEALSRGFGSSAPEGLEPDSMASAASALHLLSPRPRPGPELGPQLGLDGGPGDGDRHNTPSLLEAALTQEASTPDSQVWPTAPDITRETCSTLAESPRNGLQEKHKSLAFHRPPYHLLQQRDSQDASAEQSDHDDEVASLASASGGFGTKVPAPRLPAKDWKTKGSPRTSPKLKRKSKKDDGDAAMGSRLTEHQVAEPPEDWPALIWQQQRELAELRHSQEELLQRLCTQLEGLQSTVTGHVERALETRHEQEQRRLERALAEGQQRGGQLQEQLTQQLSQALSSAVAGRLERSIRDEIKKTVPPCVSRSLEPMAGQLSNSVATKLTAVEGSMKENISKLLKSKNLTDAIARAAADTLQGPMQAAYREAFQSVVLPAFEKSCQAMFQQINDSFRLGTQEYLQQLESHMKSRKAREQEAREPVLAQLRGLVSTLQSATEQMAATVAGSVRAEVQHQLHVAVGSLQESILAQVQRIVKGEVSVALKEQQAAVTSSIMQAMRSAAGTPVPSAHLDCQAQQAHILQLLQQGHLNQAFQQALTAADLNLVLYVCETVDPAQVFGQPPCPLSQPVLLSLIQQLASDLGTRTDLKLSYLEEAVMHLDHSDPITRDHMGSVMAQVRQKLFQFLQAEPHNSLGKAARRLSLMLHGLVTPSLP
